# Assay results from patent US20180271805A1, “COMPOSITION FOR THE TREATMENT OF HUMAN AND MAMMALIAN ATHEROSCLEROSIS AND PATHOLOGICAL CALCIFICATION IN TISSUE” (NanoBiotech Pharma, Inc., priority 2017, published 2018).
# At least one compound was matched to its structure with a doubt left.
# Test: Further study of the tetracycline molecule: binding to calcium
# Conditions: 6 binding sites on the exterior of the molecule
structure (smiles),measurement,value
CN(C)[C@@H]1C(O)=C(C(N)=O)C(=O)[C@@]2(O)C(O)=C3C(=O)c4c(O)cccc4[C@@](C)(O)[C@H]3C[C@@H]12 [tetracycline],affinity for binding to calcium,very high affinity
